For at least one entry, the source does not settle the construct or the ends of the probe.
How the values were obtained:
Experiment in all cases: enzyme reaction in vitro
AlwI = settings: cuts both strands, linearizes pAC1; purified recombinant protein; only the motif is given
N.BstNBI = settings: purified recombinant protein, only the motif is given
MlyI = settings: Type IIs double-strand cleavage; pNB1 and pUC19; purified recombinant protein; only the motif is given

Sequence | activity on this sequence (AlwI) | activity on this sequence (N.BstNBI; relaxed form produced, acts at its own GAGTC sites rather than GGATC) | activity on this sequence (MlyI) | activity on this sequence (N.BstNBI; nicking of pNB1)
GGATC (double strand) [pAC1 (single AlwI site)] | active | active | – | –
GAGTC (double strand) [MlyI/N.BstNBI site in pNB1 / pUC19] | – | – | active | active

Source: patent US6395523 (NEW ENGLAND BIOLABS, dated 2002)
